Some of these results come from one statement about several compounds together.
What follows are compounds tested against T1, human P2X7 receptor (Homo sapiens, UniProt Q99572) (assay: Fluorescent Imaging Plate Reader (FLIPR) Ca Assay). Conditions: HEK293 or U-2OS cells expressing human recombinant P2X7 receptors; BzATP close to EC80; values given as 'about'.
T1 construct: expressed in transfected cells
T1 sequence (Q99572 1-595): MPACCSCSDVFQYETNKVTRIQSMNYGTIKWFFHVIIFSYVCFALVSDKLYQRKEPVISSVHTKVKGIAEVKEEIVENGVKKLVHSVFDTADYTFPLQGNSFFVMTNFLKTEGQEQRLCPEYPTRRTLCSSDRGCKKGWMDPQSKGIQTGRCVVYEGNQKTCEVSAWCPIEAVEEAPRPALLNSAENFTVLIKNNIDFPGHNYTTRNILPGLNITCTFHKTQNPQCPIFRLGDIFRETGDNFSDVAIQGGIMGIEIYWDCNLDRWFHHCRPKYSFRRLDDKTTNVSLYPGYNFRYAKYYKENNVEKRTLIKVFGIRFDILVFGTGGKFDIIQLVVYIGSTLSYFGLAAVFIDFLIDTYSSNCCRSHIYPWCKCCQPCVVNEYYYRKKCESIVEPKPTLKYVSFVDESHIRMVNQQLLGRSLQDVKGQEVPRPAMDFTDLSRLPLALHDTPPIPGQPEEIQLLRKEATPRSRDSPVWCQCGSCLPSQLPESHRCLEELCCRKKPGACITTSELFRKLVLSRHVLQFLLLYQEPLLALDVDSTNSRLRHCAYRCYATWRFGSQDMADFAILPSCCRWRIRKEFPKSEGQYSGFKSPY
Type: cell-based

Row | SMILES | pIC50 for human P2X7 receptor antagonist activity (blocking BzATP responses) in the FLIPR Ca Assay
1 | O=C(c1cccc(Cl)c1Cl)N1CCN(c2cccc3ccccc23)C(=O)C1 [Example 22, 4-[(2,3-dichlorophenyl)carbonyl]-1-(1-naphthalenyl)-2-piperazinone] | ≥ 5.0
2 | Cc1c(N2CCOCC2)cccc1N1CCN(C(=O)c2cccc(C(F)(F)F)c2Cl)CC1=O [Example 81, 4-{[2-chloro-3-(trifluoromethyl)phenyl]carbonyl}-1-[2-methyl-3-(4-morpholinyl)phenyl]-2-piperazinone] | ≥ 5.0
3 | Cc1cccc(C(=O)N2CCN(c3ccc(F)cc3Cl)C(=O)C2)c1Cl [Example 30, 1-(2-chloro-4-fluorophenyl)-4-[(2-chloro-3-methylphenyl)carbonyl]-2-piperazinone] | ≥ 5.0
4 | Cc1cc(F)c(Br)cc1N1CCN(C(=O)c2cccc(C(F)(F)F)c2Cl)CC1=O [Example 45, 1-(5-bromo-4-fluoro-2-methylphenyl)-4-{[2-chloro-3-(trifluoromethyl)phenyl]carbonyl}-2-piperazinone] | ≥ 5.0
5 | CC(C)Oc1cc(F)ccc1N1CCN(C(=O)c2cccc(Cl)c2Cl)CC1=O [Example 58, 4-[(2,3-dichlorophenyl)carbonyl]-1-{4-fluoro-2-[(1-methylethyl)oxy]phenyl}-2-piperazinone] | ≥ 5.0
6 | O=C(c1cccc(Cl)c1Cl)N1CCN(c2ccc(F)cc2)C(=O)C1 [Example 13, 4-[(2,3-Dichlorophenyl)carbonyl]-1-(4-fluorophenyl)-2-piperazinone] | ≥ 5.5
7 | Cc1ccc(N2CCC(O)C2)cc1N1CCN(C(=O)c2cccc(C(F)(F)F)c2Cl)CC1=O (centres unmarked) [Example 83, 4-{[2-chloro-3-(trifluoromethyl)phenyl]carbonyl}-1-[5-(3-hydroxy-1-pyrrolidinyl)-2-methylphenyl]-2-piperazinone] | ≥ 5.0
8 | CCN1CCN(C(=O)c2cccc(C(F)(F)F)c2Cl)CC1=O [Example 42, 4-{[2-chloro-3-(trifluoromethyl)phenyl]carbonyl}-1-ethyl-2-piperazinone] | ≥ 5.0
9 | Cc1ccccc1N1CCN(C(=O)c2ccc(F)cc2Cl)CC1=O [Example 3, 4-[(2-Chloro-4-fluorophenyl)carbonyl]-1-(2-methylphenyl)-2-piperazinone] | ≥ 5.5
10 | O=C(c1cccc(Cl)c1F)N1CCN(c2ccc(F)cc2Cl)C(=O)C1 [Example 59, 1-(2-chloro-4-fluorophenyl)-4-[(3-chloro-2-fluorophenyl)carbonyl]-2-piperazinone] | ≥ 5.0
11 | CC(C)N1CCN(C(=O)c2cccc(C(F)(F)F)c2Cl)CC1=O [Example 43, 4-{[2-chloro-3-(trifluoromethyl)phenyl]carbonyl}-1-(1-methylethyl)-2-piperazinone] | ≥ 5.0
12 | COCCN1CCN(C(=O)c2cccc(C(F)(F)F)c2Cl)CC1=O [Example 63, 4-{[2-chloro-3-(trifluoromethyl)phenyl]carbonyl}-1-[2-(methyloxy)ethyl]-2-piperazinone] | ≥ 5.0
13 | O=C(c1cccc(C(F)(F)F)c1Cl)N1CCN(c2ccc(F)cc2F)C(=O)C1 [Example 21, 4-{[2-chloro-3-(trifluoromethyl)phenyl]carbonyl}-1-(2,4-difluorophenyl)-2-piperazinone] | ≥ 5.0
14 | N#Cc1cc(F)ccc1N1CCN(C(=O)c2cccc(Cl)c2Cl)CC1=O [Example 38, 2-{-4-[(2,3-dichlorophenyl)carbonyl]-2-oxo-1-piperazinyl}-5-fluorobenzonitrile] | ≥ 5.0

From US20100311749A1, “4-BENZOYL-1-SUBSTITUTED-PIPERAZIN-2-ONE DERIVATIVES AS P2X7 MODULATORS” (priority 2007, published 2010)
